# The mice bore no tumour; each value counts animals alive of those treated. Survivors were counted at the toxicity check, usually on the fifth day, unless a day is given; later deaths do not show. Schedules are NCI's codes, read here as Q, the interval in days (D) or hours (H), X, the number of doses.
# System: CD2F1 mice, nontumored, toxicity/survival
# Assay: NCI In Vivo Anticancer Drug Screen. Data for tumor model Nontumored Animals (Toxicity Test) in CD2F1 (CDF1) mice
compound,measurement,setting,value
C[n+]1ccc(Nc2ccc(NC(=O)c3ccc(Nc4cc[n+](C)c5ccc(N)cc45)cc3)cc2)cc1,survivor count,"dose: 0.25 mg/kg/injection, schedule: Q03HX008 (ip), vehicle: water",8 of 8
same,survivor count,"dose: 0.25 mg/kg/injection, schedule: Q03HX016 (ip), vehicle: water",8 of 8
same,survivor count,"dose: 0.25 mg/kg/injection, schedule: Q03HX024 (ip), vehicle: water",8 of 8
same,survivor count,"dose: 0.5 mg/kg/injection, schedule: Q01DX005 (ip), vehicle: water",8 of 8
same,survivor count,"dose: 0.5 mg/kg/injection, schedule: Q01DX009 (ip), vehicle: water",8 of 8
same,survivor count,"dose: 0.5 mg/kg/injection, schedule: Q01DX009 (sc), vehicle: water",8 of 8
same,survivor count,"dose: 0.5 mg/kg/injection, schedule: Q03HX008 (ip), vehicle: water",8 of 8
same,survivor count,"dose: 0.5 mg/kg/injection, schedule: Q03HX016 (ip), vehicle: water",8 of 8
same,survivor count,"dose: 0.5 mg/kg/injection, schedule: Q03HX024 (ip), vehicle: water",8 of 8
same,survivor count,"dose: 1.0 mg/kg/injection, schedule: Q01DX005 (ip), vehicle: water",8 of 8
same,survivor count,"dose: 1.0 mg/kg/injection, schedule: Q01DX009 (ip), vehicle: water",8 of 8
same,survivor count,"dose: 1.0 mg/kg/injection, schedule: Q01DX009 (sc), vehicle: water",8 of 8
same,survivor count,"dose: 1.0 mg/kg/injection, schedule: Q03HX008 (ip), vehicle: water",8 of 8
same,survivor count,"dose: 1.0 mg/kg/injection, schedule: Q03HX016 (ip), vehicle: water",8 of 8
same,survivor count,"dose: 1.0 mg/kg/injection, schedule: Q03HX024 (ip), vehicle: water",8 of 8
same,survivor count,"dose: 2.0 mg/kg/injection, schedule: Q01DX001 (ip), vehicle: water",8 of 8
same,survivor count,"dose: 2.0 mg/kg/injection, schedule: Q01DX001 (sc), vehicle: water",8 of 8
same,survivor count,"dose: 2.0 mg/kg/injection, schedule: Q01DX005 (ip), vehicle: water",8 of 8
same,survivor count,"dose: 2.0 mg/kg/injection, schedule: Q01DX009 (ip), vehicle: water",8 of 8
same,survivor count,"dose: 2.0 mg/kg/injection, schedule: Q01DX009 (oral), vehicle: water",8 of 8
same,survivor count,"dose: 2.0 mg/kg/injection, schedule: Q01DX009 (sc), vehicle: water",8 of 8
same,survivor count,"dose: 2.0 mg/kg/injection, schedule: Q03HX008 (ip), vehicle: water",8 of 8
same,survivor count,"dose: 2.0 mg/kg/injection, schedule: Q03HX016 (ip), vehicle: water",8 of 8
same,survivor count,"dose: 2.0 mg/kg/injection, schedule: Q03HX024 (ip), vehicle: water",8 of 8
same,survivor count,"dose: 2.0 mg/kg/injection, schedule: Q04DX003 (ip), vehicle: water",8 of 8
same,survivor count,"dose: 2.0 mg/kg/injection, schedule: Q08DX002 (ip), vehicle: water",8 of 8
same,survivor count,"dose: 4.0 mg/kg/injection, schedule: Q01DX001 (ip), vehicle: water",8 of 8
same,survivor count,"dose: 4.0 mg/kg/injection, schedule: Q01DX001 (sc), vehicle: water",8 of 8
same,survivor count,"dose: 4.0 mg/kg/injection, schedule: Q01DX005 (ip), vehicle: water",8 of 8
same,survivor count,"dose: 4.0 mg/kg/injection, schedule: Q01DX009 (ip), vehicle: water",8 of 8
same,survivor count,"dose: 4.0 mg/kg/injection, schedule: Q01DX009 (oral), vehicle: water",8 of 8
same,survivor count,"dose: 4.0 mg/kg/injection, schedule: Q01DX009 (sc), vehicle: water",8 of 8
same,survivor count,"dose: 4.0 mg/kg/injection, schedule: Q03HX008 (ip), vehicle: water",8 of 8
same,survivor count,"dose: 4.0 mg/kg/injection, schedule: Q03HX016 (ip), vehicle: water",7 of 8
same,survivor count,"dose: 4.0 mg/kg/injection, schedule: Q03HX024 (ip), vehicle: water",7 of 8
same,survivor count,"dose: 4.0 mg/kg/injection, schedule: Q04DX003 (ip), vehicle: water",8 of 8
same,survivor count,"dose: 4.0 mg/kg/injection, schedule: Q08DX002 (ip), vehicle: water",8 of 8
same,survivor count,"dose: 8.0 mg/kg/injection, schedule: Q01DX001 (ip), vehicle: water",6 of 8
same,survivor count,"dose: 8.0 mg/kg/injection, schedule: Q01DX001 (oral), vehicle: water",8 of 8
same,survivor count,"dose: 8.0 mg/kg/injection, schedule: Q01DX001 (sc), vehicle: water",8 of 8
same,survivor count,"dose: 8.0 mg/kg/injection, schedule: Q01DX005 (ip), vehicle: water",6 of 8
same,survivor count,"dose: 8.0 mg/kg/injection, schedule: Q01DX009 (ip), vehicle: water",1 of 8
same,survivor count,"dose: 8.0 mg/kg/injection, schedule: Q01DX009 (oral), vehicle: water",8 of 8
same,survivor count,"dose: 8.0 mg/kg/injection, schedule: Q01DX009 (sc), vehicle: water",8 of 8
same,survivor count,"dose: 8.0 mg/kg/injection, schedule: Q03HX008 (ip), vehicle: water",2 of 8
same,survivor count,"dose: 8.0 mg/kg/injection, schedule: Q03HX016 (ip), vehicle: water",3 of 8
same,survivor count,"dose: 8.0 mg/kg/injection, schedule: Q03HX024 (ip), vehicle: water",6 of 8
same,survivor count,"dose: 8.0 mg/kg/injection, schedule: Q04DX003 (ip), vehicle: water",3 of 8
same,survivor count,"dose: 8.0 mg/kg/injection, schedule: Q08DX002 (ip), vehicle: water",4 of 8
same,survivor count,"dose: 16.0 mg/kg/injection, schedule: Q01DX001 (ip), vehicle: water",0 of 8
same,survivor count,"dose: 16.0 mg/kg/injection, schedule: Q01DX001 (oral), vehicle: water",8 of 8
same,survivor count,"dose: 16.0 mg/kg/injection, schedule: Q01DX001 (sc), vehicle: water",7 of 8
same,survivor count,"dose: 16.0 mg/kg/injection, schedule: Q01DX005 (ip), vehicle: water",0 of 8
same,survivor count,"dose: 16.0 mg/kg/injection, schedule: Q01DX009 (ip), vehicle: water",0 of 8
same,survivor count,"dose: 16.0 mg/kg/injection, schedule: Q01DX009 (oral), vehicle: water",8 of 8
same,survivor count,"dose: 16.0 mg/kg/injection, schedule: Q01DX009 (sc), vehicle: water",3 of 8
same,survivor count,"dose: 16.0 mg/kg/injection, schedule: Q04DX003 (ip), vehicle: water",0 of 8
same,survivor count,"dose: 16.0 mg/kg/injection, schedule: Q08DX002 (ip), vehicle: water",0 of 8
same,survivor count,"dose: 32.0 mg/kg/injection, schedule: Q01DX001 (ip), vehicle: water",0 of 8
same,survivor count,"dose: 32.0 mg/kg/injection, schedule: Q01DX001 (oral), vehicle: water",8 of 8
same,survivor count,"dose: 32.0 mg/kg/injection, schedule: Q01DX001 (sc), vehicle: water",8 of 8
same,survivor count,"dose: 32.0 mg/kg/injection, schedule: Q01DX009 (oral), vehicle: water",8 of 8
same,survivor count,"dose: 32.0 mg/kg/injection, schedule: Q04DX003 (ip), vehicle: water",0 of 8
same,survivor count,"dose: 32.0 mg/kg/injection, schedule: Q08DX002 (ip), vehicle: water",0 of 8
same,survivor count,"dose: 64.0 mg/kg/injection, schedule: Q01DX001 (ip), vehicle: water",0 of 8
same,survivor count,"dose: 64.0 mg/kg/injection, schedule: Q01DX001 (oral), vehicle: water",8 of 8
same,survivor count,"dose: 64.0 mg/kg/injection, schedule: Q01DX001 (sc), vehicle: water",7 of 8
same,survivor count,"dose: 64.0 mg/kg/injection, schedule: Q01DX009 (oral), vehicle: water",7 of 8
same,survivor count,"dose: 64.0 mg/kg/injection, schedule: Q04DX003 (ip), vehicle: water",0 of 8
same,survivor count,"dose: 64.0 mg/kg/injection, schedule: Q08DX002 (ip), vehicle: water",0 of 8
same,survivor count,"dose: 128.0 mg/kg/injection, schedule: Q01DX001 (oral), vehicle: water",8 of 8
same,survivor count,"dose: 256.0 mg/kg/injection, schedule: Q01DX001 (oral), vehicle: water",8 of 8
C1CC(N2CC2)CCC1N1CC1 (stereo not drawn),survivor count,"dose: 4.0 mg/kg/injection, schedule: Q04DX003 (ip), vehicle: saline",10 of 10
same,survivor count,"dose: 6.0 mg/kg/injection, schedule: Q04DX003 (ip), vehicle: saline",10 of 10
same,survivor count,"dose: 9.0 mg/kg/injection, schedule: Q04DX003 (ip), vehicle: saline",10 of 10
same,survivor count,"dose: 13.0 mg/kg/injection, schedule: Q04DX003 (ip), vehicle: saline",10 of 10
same,survivor count,"dose: 20.0 mg/kg/injection, schedule: Q04DX003 (ip), vehicle: saline",6 of 10
same,survivor count,"dose: 30.0 mg/kg/injection, schedule: Q04DX003 (ip), vehicle: saline",3 of 10
same,survivor count,"dose: 44.0 mg/kg/injection, schedule: Q04DX003 (ip), vehicle: saline",0 of 10
same,survivor count,"dose: 67.0 mg/kg/injection, schedule: Q04DX003 (ip), vehicle: saline",0 of 10
same,survivor count,"dose: 100.0 mg/kg/injection, schedule: Q04DX003 (ip), vehicle: saline",0 of 10
same,survivor count,"dose: 150.0 mg/kg/injection, schedule: Q04DX003 (ip), vehicle: saline",0 of 10
Cc1c(N)ncc2ccccc12,survivor count,"dose: 1.0 mg/kg/injection, schedule: Q01DX001 (ip), vehicle: other",2 of 2
same,survivor count,"dose: 10.0 mg/kg/injection, schedule: Q01DX001 (ip), vehicle: other",2 of 2
same,survivor count,"dose: 100.0 mg/kg/injection, schedule: Q01DX001 (ip), vehicle: other",2 of 2
Cc1ccc(-c2nc(N)nc(N)n2)cc1,survivor count,"dose: 1.0 mg/kg/injection, schedule: Q01DX001 (ip), vehicle: water",2 of 2
same,survivor count,"dose: 10.0 mg/kg/injection, schedule: Q01DX001 (ip), vehicle: water",2 of 2
same,survivor count,"dose: 100.0 mg/kg/injection, schedule: Q01DX001 (ip), vehicle: water",2 of 2

# Source: PubChem BioAssay AID188 (DTP/NCI, 2004)
